These are yes or no findings as the source states them, for the method shown. In cells and extracts the contact can be indirect. Some results given as binding are weak or reduced against the parent protein; the word gives no strength.
Biological target: HA-TMED2 (UniProt Q15363)
Assay: co-IP; cells co-transfected with Flag-AKT2 and HA-TMED2, harvested 24 h later; anti-HA immunoprecipitation, anti-Flag Western blot; single transfections as controls

Sequences of proteins named here, by UniProt entry; tags and fusion partners are left off. Residues count along the entry.
UniProt Q15363, residues 21-201: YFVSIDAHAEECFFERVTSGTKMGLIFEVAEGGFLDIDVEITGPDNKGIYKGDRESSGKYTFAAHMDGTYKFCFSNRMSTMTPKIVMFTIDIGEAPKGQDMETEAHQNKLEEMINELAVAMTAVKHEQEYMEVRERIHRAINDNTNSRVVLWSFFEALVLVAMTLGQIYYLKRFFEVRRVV
UniProt P31751: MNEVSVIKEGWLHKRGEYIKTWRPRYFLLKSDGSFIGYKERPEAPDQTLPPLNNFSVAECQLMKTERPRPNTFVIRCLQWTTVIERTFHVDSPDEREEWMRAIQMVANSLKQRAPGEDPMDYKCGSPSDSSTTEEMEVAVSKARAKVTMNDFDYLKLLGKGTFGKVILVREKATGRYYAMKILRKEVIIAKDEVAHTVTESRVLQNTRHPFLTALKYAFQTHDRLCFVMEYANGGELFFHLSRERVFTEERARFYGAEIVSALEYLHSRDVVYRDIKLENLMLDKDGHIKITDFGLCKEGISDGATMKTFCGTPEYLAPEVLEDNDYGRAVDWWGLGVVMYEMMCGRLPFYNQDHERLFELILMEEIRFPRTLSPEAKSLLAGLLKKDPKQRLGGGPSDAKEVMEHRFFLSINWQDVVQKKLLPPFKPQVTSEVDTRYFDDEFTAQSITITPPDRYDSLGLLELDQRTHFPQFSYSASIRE

binding: binds
Substance: Flag-AKT2 (from UniProt P31751 1-481)

Source: paper PMC5706863
